Data published in patent publication US4004008A, “O-Tertiary amino-alkyl-N-benzoyl tyrosil amides” (priority 1974, dated 1977).

Assays:
[1] = tested on: intestinal transit of the charcoal; experiment: Vegetable carbon (charcoal) intestinal transit test in vivo; details: therapeutic index, DL50 / charcoal ED50, rat i.v.
Description: B. The vegetable carbon method in vivo (charcoal method) which consists of administering by oral means to rats, which have fasted for 24 hours, 0.3ml/per rate of a mixture consisting of: 10g of charcoal and 5 g of gum arabic suspended in a volume of 100 cc of H2 O as well as at the same time the substance being studied, accordingly as desired, generally i.v., s.c., oral. After two hours the animals are killed and those are taken to be negative in which the charcoal has reached the first portion of the colon and the others positive, in the sense that the substance administered has slowed down the intestinal transit of the charcoal.
In effect the animals treated with a physiological solution (checks) are all negative after two hours.
D. I.T.1 is the therapeutic index under the profile of the antispastic activity in vivo, and it is obtained by recording the DL50 (column 2) with the ED50 of the charcoal test (column 3).

[2] = tested on: ileum of a cavy (BaCl2 spasm); experiment: Antispastic activity in vitro, Magnus method, cavy ileum stimulated with BaCl2; format: cell-based; details: therapeutic index, in vitro activity index (column 4) x DL50
Description: C. The method in vitro is that of Magnus, with the ileum of the cavy, and is in common use for all evaluations. It consists of extracting the ileum from the cavy and placing it in a receptacle which contains nutritive liquid, suitably oxygenated, and registering the movements of the organ which remains alive for several hours if maintained at a temperature of 37°. According to the traditional method followed by us, BaCl2 is put into the bath as a spasmisant: the reaction is a violent contraction of the organ. This contraction can be prevented by adding beforehand pharmaceuticals which inhibit spasms, and in this case our compounds.
The values recorded are expressed as relation between papaverine and the ED50 of our compounds. (As is known, the ED50 is the dose which results in a 50% reduction in spastic contraction).
E. I.T.2 is the therapeutic index under the profile of the antispastic activity in vitro and is given by the product between the in vitro antispastic activity index (column 4) and the corresponding DL50 (column 2).

| Molecule | I.T.1: DL50/ED50 in vivo [1] | I.T.2: DL50 CR x ED50 pap./ED50 CR [2] |
| --- | --- | --- |
| CCCCNC(=O)C(Cc1ccc(OCCN2CCCC2)cc1)NC(=O)c1ccc(C)cc1 (racemic) [CR 651, O-(2-pyrrolidil-N'-ethyl)-N-toluoyl-DL-tyrosil-n-butylamide] | 2.1 | 55.0 |
| CCCCNC(=O)C(Cc1ccc(OCCCN2CCN(C)CC2)cc1)NC(=O)c1ccccc1 (racemic) [CR 702, O-[3-(N"-methyl-piperazine)-N'-propyl]-N-benzoyl-DL-tyrosil-n-butylamide] | 1.3 | 9.0 |
| CCCCNC(=O)C(Cc1ccc(OCCCN2CCN(C)CC2)cc1)NC(=O)c1ccc(Cl)cc1 (racemic) [CR 705, O-[3-(N"-methyl-piperazine)-N'-propyl]-N-(p-chloro-benzoyl)-DL-tyrosil-n-butylamide] | 2.1 | 126 |
| CCCN(CCC)C(=O)C(Cc1ccc(OCCN(CC)CC)cc1)NC(=O)c1ccc(Cl)cc1 (racemic) [CR 716, O-(2-diethylamino-ethyl)-N-(p-chloro-benzoyl)-DL-tyrosil-di-n-propylamide] | 2.1 | 89.1 |
| CCCN(CCC)C(=O)C(Cc1ccc(OCCCN2CCN(C)CC2)cc1)NC(=O)c1ccc(Cl)cc1 (racemic) [CR 725, O-[3-(N"-methyl-piperazine)-N'-propyl]-N-(p-chloro-benzoyl)-DL-tyrosil-di-n-propylamide] | 5.1 | 200 |
| CCCN(CCC)C(=O)C(Cc1ccc(OCCN(C(C)C)C(C)C)cc1)NC(=O)c1ccc(Cl)cc1 (racemic) [CR 727, O-(2'-di-isopropylamino-ethyl)-N-(p-chloro-benzoyl)-DL-tyrosil-di-n-propylamide] | 1.05 | 40 |
| CCCCNC(=O)C(Cc1ccc(OCCN(CC)CC)cc1)NC(=O)c1ccc(Cl)cc1 (racemic) [CR 729, O-(2-diethylamino-ethyl)-N-(p-chloro-benzoyl)-DL-tyrosil-n-butylamide] | 1.6 | 94.6 |
| CCCCNC(=O)C(Cc1ccc(OCCN2CCN(C)CC2)cc1)NC(=O)c1ccc(Cl)cc1 (racemic) [CR 730, O-[2-(N"-methyl-piperazine)-N'-ethyl]-N-(p-chloro-benzoyl)-DL-tyrosil-n-butylamide] | 1.6 | 49.5 |
| CCCCN(CCCC)C(=O)C(Cc1ccc(OCCCN2CCN(C)CC2)cc1)NC(=O)c1ccccc1Cl (racemic) [CR 731, O-[3-(N"-methyl-piperazine)-N'-propyl]-N-(o-chloro-benzoyl)-DL-tyrosil-di-n-butylamide] | 1.5 | 106.7 |
| CCCN(CCC)C(=O)C(Cc1ccc(OCCN2CCN(C)CC2)cc1)NC(=O)c1ccc(Cl)cc1 (racemic) [CR 733, O-[2'-(N"-methyl-piperazine)-N'-ethyl]-N-(p-chloro-benzoyl)-DL-tyrosil-di-n-propylamide] | 2.6 | 57 |
| CCN(CC)CCOc1ccc(CC(NC(=O)c2ccccc2)C(=O)N(CC)CC)cc1 (racemic) [CR 734, O-(2-diethylamino-ethyl)-N-benzoyl-DL-tyrosil-di-ethylamide] | 1.8 | 32.3 |
| CCN(CC)C(=O)C(Cc1ccc(OCCN2CCN(C)CC2)cc1)NC(=O)c1ccccc1 (racemic) [CR 736, O-[2-(N"-methyl-piperazine)-N'-ethyl]-N-benzoyl-DL-tyrosildiethylamide] | 2.5 | 4.0 |
| CCN(CC)CCOc1ccc(CC(NC(=O)c2ccccc2)C(=O)N(C)C)cc1 (racemic) [CR 738, O-(2-diethylamino-ethyl)-N-benzoyl-DL-tyrosil-di-methylamide] | 1.7 | 11.9 |
| CCCCNC(=O)C(Cc1ccc(OCCN(CC)CC)cc1)NC(=O)c1ccccc1 (racemic) [CR 786, O-(2-diethylamine-ethyl)-N-benzoyl-DL-tyrosil-n-butylamide] | 1.1 | 6.5 |
| CCCN(CCC)C(=O)C(Cc1ccc(OCCN(CC)CC)cc1)NC(=O)c1ccc(C)cc1 (racemic) [CR 807, O-(2-diethylamino-ethyl)-N-toluoyl-DL-tyrosil-di-n-propylamide] | 1.5 | 10.7 |
| CCCCNC(=O)C(Cc1ccc(OCCN2CCCC2)cc1)NC(=O)c1ccc(Cl)cc1 (racemic) [CR 812, O-(2'-pyrrolidil-N'-ethyl)-N-(p-chloro-benzoyl)-DL-tyrosil-n-butylamide] | 1.3 | 27.8 |

| Molecule | I.T.1: DL50/ED50 in vivo [1] | I.T.2: DL50 CR x ED50 pap./ED50 CR [2] |
| --- | --- | --- |
| CCCN(CCC)C(=O)C(Cc1ccc(OCCCN(C)C)cc1)NC(=O)c1ccccc1 (racemic) [CR 816, O-(3-dimethylamino-propyl)-N-benzoyl-DL-tyrosil-di-n-propylamide] | 2.9 | 32.0 |
| CCCNC(=O)C(Cc1ccc(OCCN2CCCC2)cc1)NC(=O)c1ccccc1 (racemic) [CR 821, O-(2-pyrrolidil-N'-ethyl)-N-benzoyl-DL-tyrosil-n-propylamide] | 3.4 | 6.9 |
| CCCN(CCC)CCOc1ccc(CC(NC(=O)c2ccccc2)C(=O)N(CCC)CCC)cc1 (racemic) [CR 823, O-(2-di-n-propylamino-ethyl)-N-benzoyl-DL-tyrosil-di-n-propylamide] | 1.4 | 34.1 |
| CCCCCCNC(=O)C(Cc1ccc(OCCN2CCCC2)cc1)NC(=O)c1ccccc1 (racemic) [CR 825, O-(2-pyrrolidil-N'-ethyl)-N-benzoyl-DL-tyrosil-n-hexylamide] | 2.8 | 75.7 |
| CCCCCCNC(=O)C(Cc1ccc(OCCN2CCCC2)cc1)NC(=O)c1ccc(C)cc1 (racemic) [CR 826, 0-(2-pyrrolidil-N'-ethyl)-N-toluoyl-DL-tyrosil-n-hexylamide] | 2.4 | 49.2 |
| CCCN(CCC)C(=O)C(Cc1ccc(OCCN(CC)CC)cc1)NC(=O)OCc1ccccc1 (racemic) [CR 832, O-(2-diethylamino-ethyl)-N-carbobenzoxy-DL-tyrosil-di-n-propylamide] | 1.9 | 45.3 |
| CCCN(CCC)C(=O)C(Cc1ccc(OCCN(C)C)cc1)NC(=O)OCc1ccccc1 [CR 603, O-(2-dimethylamino-ethyl)-N-carbobenzoxy-L-tyrosil-di-n-propylamide] | 2.05 | 151 |
| CCNC(=O)C(Cc1ccc(OCCN(C)C)cc1)NC(=O)OCc1ccccc1 [CR 610, O-(2-dimethylamino-ethyl)-N-carbobenzoxy-L-tyrosil-ethylamide] | 2.4 | 18.2 |
| CN(C)CCOc1ccc(C[C@H](NC(=O)OCc2ccccc2)C(=O)NCc2ccccc2)cc1 [CR 612, O-(2-dimethylamino-ethyl)-N-carbobenzoxy-L-tyrosil-benzylamide] | 3.8 | 30.5 |
| CCCN(CCC)C(=O)C(Cc1ccc(OCCN(C)C)cc1)NC(=O)OCc1ccc([N+](=O)[O-])cc1 (centres unmarked) [CR 613] | 1.7 | 68.2 |
| CCCN(CCC)C(=O)C(Cc1ccc(OCCN(CC)CC)cc1)NC(=O)OCc1ccccc1 [CR 627, O-(2-diethylamino-ethyl)-N-carbobenzoxy-D-tyrosil-di-n-propylamide] | 1.6 | 48.9 |
| CCCN(CCC)C(=O)C(Cc1ccc(OCCN(CC)CC)cc1)NC(=O)c1ccccc1 [CR 804, O-(2-diethylamino-ethyl)-N-benzoyl-L-tyrosil-di-n-propylamide] | 2.1 | 29.8 |
| CCCN(CCC)C(=O)C(Cc1ccc(OCCN(CC)CC)cc1)NC(=O)OCc1ccccc1 [CR 830, O-(2-diethylamino-ethyl)-N-carbobenzoxy-L-tyrosil-di-n-propylamide] | 1.8 | 47.2 |
| CCCN(CCC)C(=O)C(Cc1ccc(OCCN(CC)CC)cc1)NC(=O)c1ccc(Cl)cc1 [CR 831, O-(2-diethylamino-ethyl)-N-(p-chloro-benzoyl)-L-tyrosil-din-propylamide] | 1.4 | 45.5 |
| O-(3-pyrrolidil-N'-propyl)-N-toluoyl-DL-tyrosil-n-butylamide [CR 797] | 1.7 | 27.2 |
